One molecule from patent US20250353921A1 can be followed below.

The chains behind the UniProt entries cited, without tags or fusion partners. Where a name states a change or a piece, a line headed by the entry shows the natural chain unless it says otherwise.
UniProt P43489: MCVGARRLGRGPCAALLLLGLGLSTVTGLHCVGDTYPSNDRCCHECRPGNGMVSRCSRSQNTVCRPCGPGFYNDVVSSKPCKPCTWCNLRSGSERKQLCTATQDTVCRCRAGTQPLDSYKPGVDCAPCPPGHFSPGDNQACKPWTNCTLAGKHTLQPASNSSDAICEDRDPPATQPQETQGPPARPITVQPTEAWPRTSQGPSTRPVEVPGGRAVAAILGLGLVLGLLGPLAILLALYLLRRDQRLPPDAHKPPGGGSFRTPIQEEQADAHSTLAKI

These are yes or no findings as the source states them, for the method shown. Some results given as binding are weak or reduced against the parent protein; the word gives no strength. Sequences can lack the tags named with a protein.

Assay [1] addresses human OX40-CRD-avi-his (human) (UniProt P43489). The assay is described as follows: SPR kinetic screen (Biacore T200): test protein captured on an anti-human capture chip, human OX40 injected about 0-180 s, then dissociation; curves normalised to 0 at the end of the injection. The legend names human OX40-CRD-avi-his, the method human OX40-ECD-his at 1 µM.
For assay [2], the target named is human OX40-ECD-his (human) (UniProt P43489). Kind of assay: SPR Biacore T200 kinetic screen, scFv-Fc captured, antigen at 1 µM. (SPR reads the build-up and loss of mass on a sensor chip optically.)

B1: MAB1 scFv-Fc fusion protein (Fc fusion, not shown: a dimerising Fc or GST)
chain: QVTLKESGPALVKPTQTLTLTCSFSGFSLSTSGMGVGWIRQPPGKALEWIAHIWWDDDKYYNTALKTRLTISKDTSKNQVVLTMTNMDPVDTATYYCARIDWDGFAYWGQGTLVTVSSGGGGSGGGGSGGGGSEIVLTQSPATLSLSPGERATLSCRASSSVSYMHWYQQKPGQAPRPWIYATSNRATGIPARFSGSGSGTDYTLTISSLEPEDFAVYYCQQFGAWPWTFGQGTKVEIKGGGG
As to B1, the binding result in assay [1] and in assay [2] was “binds” throughout.
